Laboratory results published in PubChem BioAssay AID651768 (National Center for Advancing Translational Sciences (NCATS), 2012).
Values joined by “and” are separate entries in the source; they are usually repeats but may differ in a detail not shown here. Identical values can stand only once. Out of some 360,000 compounds screened, about 1,700 (0.47%) were called active. Inconclusive means that the source gave no clear call. Such entries were picked first, then a sample of the others. Calls follow the shape of the dose curve; as a rule, active = well fitted inhibition curve with a large enough effect; inconclusive = small, poorly fitted or top-dose-only effect; inactive = no such curve, though single readings can be large or run the other way. Potencies of inconclusive entries are doubtful fits and often do not repeat.

Chains of the proteins cited; added tags and fusions are not shown.
UniProt Q14191, whole entry, looked up: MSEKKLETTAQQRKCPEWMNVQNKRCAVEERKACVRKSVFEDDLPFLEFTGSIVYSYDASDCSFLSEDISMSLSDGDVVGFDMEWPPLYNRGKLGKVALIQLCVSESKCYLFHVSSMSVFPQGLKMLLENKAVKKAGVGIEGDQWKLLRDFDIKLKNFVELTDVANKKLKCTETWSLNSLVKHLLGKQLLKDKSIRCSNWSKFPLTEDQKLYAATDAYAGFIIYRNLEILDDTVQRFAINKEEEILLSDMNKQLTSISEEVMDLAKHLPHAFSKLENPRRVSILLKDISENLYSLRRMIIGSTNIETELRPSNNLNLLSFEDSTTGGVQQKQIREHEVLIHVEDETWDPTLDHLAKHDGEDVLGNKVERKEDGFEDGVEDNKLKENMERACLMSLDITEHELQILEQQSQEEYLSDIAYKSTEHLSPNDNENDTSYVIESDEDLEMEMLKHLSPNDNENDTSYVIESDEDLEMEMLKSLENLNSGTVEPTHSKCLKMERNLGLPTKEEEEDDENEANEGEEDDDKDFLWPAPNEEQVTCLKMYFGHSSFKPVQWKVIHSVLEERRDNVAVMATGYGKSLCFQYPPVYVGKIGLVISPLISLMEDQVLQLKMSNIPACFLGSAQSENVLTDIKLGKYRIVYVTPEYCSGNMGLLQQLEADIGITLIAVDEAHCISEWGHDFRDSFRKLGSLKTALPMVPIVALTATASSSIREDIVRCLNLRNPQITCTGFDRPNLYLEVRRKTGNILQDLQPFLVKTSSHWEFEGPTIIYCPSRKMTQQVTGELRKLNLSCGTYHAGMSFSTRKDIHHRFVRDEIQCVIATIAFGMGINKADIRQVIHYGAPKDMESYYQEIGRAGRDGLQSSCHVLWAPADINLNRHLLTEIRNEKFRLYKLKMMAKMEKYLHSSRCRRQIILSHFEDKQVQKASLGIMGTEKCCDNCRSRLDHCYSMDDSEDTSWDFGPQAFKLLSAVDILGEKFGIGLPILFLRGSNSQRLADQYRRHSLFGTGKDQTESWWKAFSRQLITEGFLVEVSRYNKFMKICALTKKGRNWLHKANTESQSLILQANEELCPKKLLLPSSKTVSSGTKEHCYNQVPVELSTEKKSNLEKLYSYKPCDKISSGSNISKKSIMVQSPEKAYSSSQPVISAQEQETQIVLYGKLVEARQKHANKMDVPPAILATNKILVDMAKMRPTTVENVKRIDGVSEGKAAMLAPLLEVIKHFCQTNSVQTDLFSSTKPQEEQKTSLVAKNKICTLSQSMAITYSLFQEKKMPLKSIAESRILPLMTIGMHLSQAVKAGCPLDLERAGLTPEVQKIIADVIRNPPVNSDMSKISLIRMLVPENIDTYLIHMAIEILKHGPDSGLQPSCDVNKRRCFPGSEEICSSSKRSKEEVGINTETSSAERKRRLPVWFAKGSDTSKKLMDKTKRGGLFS

Each molecule was assayed against Bifunctional 3'-5' exonuclease/ATP-dependent helicase WRN (Homo sapiens) (UniProt Q14191) (assay: qHTS for Inhibitors of WRN Helicase). Details: WRN helicase unwinding, fluorescent forked duplex, kinetic; activity change, negative = inhibition: at 114 µM (top of the series) unless noted.
Summary of the method: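 WRN at 20 nM final was preincubated with compound for 15 min at room temperature; reaction started with 100 nM forked duplex oligonucleotide carrying fluorophore and quencher plus 2 mM ATP (final). Unwinding followed kinetically by red fluorescence (ex 525/em 598 nm).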
% is scaled to controls: 0 for no effect and ±100 for the full control effect; potency is read from the fitted curve at half-maximal effect.
Also: nearly all actives have a fitted effect of over 55% in size.

How did the Potency turn out when `Cc1cccc(N2C(=O)NC(=O)/C(=C/c3ccc([N+](=O)[O-])o3)C2=O)c1` was run?
Its Potency is active: 28.2 µM.

`COc1ccc(N2C(=O)NC(=O)/C(=C\c3ccccc3[N+](=O)[O-])C2=O)cc1` was tested. Which Potency did it give?
Its Potency is inconclusive: 31.6 µM [inhibitor, full curve].

`N#CC1=C(N)Oc2n[nH]c(-c3cccs3)c2C1c1ccsc1` (configuration not stated) was tested. Which Potency did it give?
The Potency was inconclusive: 56.2 µM [inhibitor, partial curve].

`CSc1ncc(/C=C2/C(=O)NC(=O)N(C3CCCCC3)C2=O)cn1` was tested. Which activity change, negative = inhibition did it give?
The activity change, negative = inhibition was inconclusive: -72.2% [inhibitor] [at 57.1 µM].

For `O=C1CC(=O)N(Cc2ccccc2)C(=O)N1CCCCCCN1C(=O)CC(=O)N(Cc2ccccc2)C1=O`, which Potency is on record?
The Potency was active: 28.2 µM.

With `O=C1NC(=O)C(=Cc2ccc(Sc3ccccc3)o2)C(=O)N1` as the molecule, how does the Potency read?
Its Potency is active: 11.2 µM.

With `COc1cccc(N2C(=O)/C(=C/c3ccc(C)o3)C(=O)NC2=S)c1` as the molecule, how does the Potency read?
Its Potency is inconclusive: 50.1 µM [inhibitor, partial curve].

For `O=C(c1ccc2nc(-c3ccco3)c(-c3ccco3)nc2c1)N1CCC2(CC1)OCCO2`, which Potency is on record?
The Potency was inconclusive: 56.2 µM [inhibitor, partial curve, poor fit].

`O=C1NC(=O)N(Cc2ccc(F)cc2)C(=O)/C1=C\c1ccoc1` was tested. Which Potency did it give?
The Potency was active: 31.6 µM.

`C=CCN1C(=O)NC(=O)/C(=C/C=C/c2ccccc2)C1=O` was tested. Which Potency did it give?
Its Potency is inconclusive: 50.1 µM [inhibitor, partial curve].

With `CCOC(=O)c1c(-n2c(C)cc(C=C3C(=O)NC(=S)NC3=O)c2C)sc2c1CCCC2` as the molecule, how does the Potency read?
Its Potency is active: 56.2 µM.

For `CCn1c(O)c(C=Nc2ccc(S(N)(=O)=O)cc2)c(=O)[nH]c1=S`, which Potency is on record?
Its Potency is inconclusive: 56.2 µM [inhibitor, partial curve].

How did the Potency turn out when `Cc1ccc(-n2c(O)c(C=NCc3ccco3)c(=O)[nH]c2=S)cc1C` was run?
Its Potency is inconclusive: 56.2 µM [inhibitor, partial curve].

How did the Potency turn out when `CCOc1ccc(N2C(=O)/C(=C/c3ccco3)C(=O)NC2=S)cc1` was run?
The Potency was active: 11.2 µM.

How did the Potency turn out when `COc1ccc(N2C(=O)/C(=C/c3ccco3)C(=O)NC2=S)cc1` was run?
The Potency was active: 17.8 µM.

With `O=C1NC(=O)N(c2ccccc2)C(=O)/C1=C/c1ccc(Sc2ccccc2)o1` as the molecule, how does the Potency read?
Its Potency is active: 44.7 µM.

Which “activity change, negative = inhibition” value does the source give for `CN1CCN(c2ccc(N)cc2Cl)CC1` here?
The value was inactive: -4.75% [at 57.1 µM].

For `COc1ccc(/C=C2/C(=O)NC(=O)N(c3ccc(C)c(C)c3)C2=O)cc1CN1C(=O)c2ccccc2C1=O`, which Potency is on record?
Its Potency is active: 39.8 µM.

For `C[n+]1c2cc(N)ccc2cc2ccc(N)cc21`, which Potency is on record?
The Potency was active: 15.8 µM and active: 17.8 µM.

Which Potency does the source give for `COC(=O)c1nc(-c2ccc3c(n2)C(=O)C(N)=C(OC)C3=O)c(N)c(-c2ccc(OC)c(OC)c2O)c1C` here?
Its Potency is inconclusive: 39.8 µM [inhibitor, partial curve].

Which Potency does the source give for `Cc1ccc(N2CC(C(=O)Nc3nnc(SCC(=O)Nc4cc(C)on4)s3)CC2=O)cc1` (configuration not stated) here?
The Potency was inconclusive: 10 µM [inhibitor, partial curve].

`Oc1ccc(/C=N/NP(=S)(c2ccccc2)c2ccccc2)c(O)c1O` was tested. Which Potency did it give?
The Potency was inconclusive: 39.8 µM [inhibitor, partial curve].

Which Potency does the source give for `O=C(O)COc1ccccc1/C=C1\C(=O)NC(=O)N(CCC2=CCCCC2)C1=O` here?
The Potency was active: 39.8 µM.

With `Cc1ccc(-n2c(O)c(/C=C3/C(c4ccccc4)=Nc4ccccc43)c(=O)[nH]c2=O)cc1` as the molecule, how does the Potency read?
The Potency was inconclusive: 44.7 µM [inhibitor, partial curve].

For `COc1cc(/C=C/c2nc3ccccc3c(=O)n2-c2cccc(O)c2)ccc1O`, which Potency is on record?
Its Potency is inconclusive: 89.1 µM [inhibitor, single point].

`O=C1NC(=S)SC1=Cc1ccc(N(CCCl)CCCl)cc1` was tested. Which “activity change, negative = inhibition” value did it give?
Its value is inactive: -16.5%.

How did the Potency turn out when `CN1CCN(c2ccc(/C=C3\C(=O)NC(=S)N(c4cccc(Br)c4)C3=O)o2)CC1` was run?
The Potency was inconclusive: 50.1 µM [inhibitor, partial curve].

`C=CCn1c(O)c(/C=C2\C=Nc3ccccc32)c(=O)[nH]c1=O` was tested. Which Potency did it give?
Its Potency is inconclusive: 70.8 µM [inhibitor, single point].

`S=c1[nH]c2cc(Br)cnc2[nH]1` was tested. Which Potency did it give?
The Potency was inconclusive: 3.98 µM [inhibitor, full curve, poor fit].

How did the “activity change, negative = inhibition” value turn out when `Cc1cc(OCC(=O)OC(C)(C)C)c2c3c(c(=O)oc2c1)CCC3` was run?
The value was inactive: -24.1%.

For `Cc1nn(Cc2ccccc2)c(C)c1C=C1C(=O)NC(=S)NC1=O`, which Potency is on record?
Its Potency is inconclusive: 89.1 µM [inhibitor, partial curve, poor fit].

For `CN(C)c1cccc2c(C#N)ccc(N(C)C)c12`, which “activity change, negative = inhibition” value is on record?
Its value is inactive: -24.8%.

How did the Potency turn out when `CCCCn1c(O)c(/C=C2\C=Nc3ccccc32)c(=O)[nH]c1=O` was run?
Its Potency is inconclusive: 89.1 µM [inhibitor, partial curve].

`O=C(N/N=C/c1c(O)n(Cc2ccccc2)c(=O)[nH]c1=O)c1ccccc1O` was tested. Which Potency did it give?
The Potency was inconclusive: 44.7 µM [inhibitor, partial curve, poor fit].

For `C=CCN1C(=O)/C(=C/c2cc(C)n(-c3cccnc3)c2C)C(=O)NC1=S`, which Potency is on record?
Its Potency is inconclusive: 25.1 µM [inhibitor, partial curve, poor fit].

Which Potency does the source give for `O=C(N/N=C/c1c(O)n(Cc2ccco2)c(=O)[nH]c1=O)c1ccccc1O` here?
Its Potency is inconclusive: 39.8 µM [inhibitor, partial curve].

With `Cc1c(C(=O)O)cccc1-n1c(C)cc(/C=C2\C(=O)NC(=O)N(c3ccc4c(c3)OCO4)C2=O)c1C` as the molecule, how does the activity change, negative = inhibition read?
Its activity change, negative = inhibition is inactive: -16.1% [at 11.6 µM].

With `COc1cccc(CNC(=O)c2cccc(S(=O)(=O)N3CCN(C)CC3)c2)c1` as the molecule, how does the Potency read?
Its Potency is inconclusive: 39.8 µM [inhibitor, partial curve].

With `NCCc1cc(O)c(O)cc1O` as the molecule, how does the Potency read?
The Potency was inconclusive: 89.1 µM [inhibitor, partial curve] and inconclusive: 56.2 µM [inhibitor, partial curve, poor fit].

How did the “activity change, negative = inhibition” value turn out when `CCOC(=O)[C@]12Cc3cc(OC)ccc3[C@H]1N(C)C(=O)c1cc(OC)ccc12` was run?
Its value is inactive: 2.39%.

With `O=C1NC(=O)N(c2ccc(Cl)cc2)C(=O)/C1=C\c1ccc(Sc2nc3ccccc3[nH]2)o1` as the molecule, how does the Potency read?
Its Potency is active: 25.1 µM.

Which activity change, negative = inhibition does the source give for `NC(=S)/N=C/c1c(O)[nH]c(=O)[nH]c1=O` here?
Its activity change, negative = inhibition is inactive: -3.76% [at 11.6 µM].
